Consider two molecules from paper doi:10.1101/738179.

Results are given in words; binding and its absence hold for the method and conditions named. Some entries that bind do so weakly or less than the wild type.

Experiment [1] has as its target T1, full-length Sfr1 (S. pombe) (UniProt Q9USV1).
T1 sequence: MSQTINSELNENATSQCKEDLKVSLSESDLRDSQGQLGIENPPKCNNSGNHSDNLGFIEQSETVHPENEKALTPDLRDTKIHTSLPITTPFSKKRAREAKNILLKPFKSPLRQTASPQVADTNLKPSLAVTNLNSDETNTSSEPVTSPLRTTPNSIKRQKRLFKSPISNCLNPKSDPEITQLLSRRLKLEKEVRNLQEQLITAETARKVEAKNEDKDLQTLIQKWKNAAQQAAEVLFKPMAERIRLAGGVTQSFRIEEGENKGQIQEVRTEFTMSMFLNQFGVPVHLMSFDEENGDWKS
The experiment can be described thus: co-purification.

Experiment [2] concerns the target Rad51 (S. pombe) (UniProt P36601). Description: SEC.
Experiment [3] addresses T2, Sfr1N (residues 1-176 of Sfr1) (S. pombe) (UniProt Q9USV1).
T2 sequence: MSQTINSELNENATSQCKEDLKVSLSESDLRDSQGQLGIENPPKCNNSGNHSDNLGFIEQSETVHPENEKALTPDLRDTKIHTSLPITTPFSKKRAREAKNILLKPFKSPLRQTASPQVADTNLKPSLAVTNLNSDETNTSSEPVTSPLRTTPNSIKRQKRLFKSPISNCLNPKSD
Description: NMR titration.

B1: Swi5 (protein, UniProt Q9UUB7 1-85)
chain: MEKSQLESRVHLLEQQKEQLESSLQDALAKLKNRDAKQTVQKHIDLLHTYNEIRDIALGMIGKVAEHEKCTSVELFDRFGVNGSE
As for B1, the binding result in experiment [1] is on record as “binds”.

B2: Rad51 (protein, UniProt P36601 1-365)
chain: MADTEVEMQVSAADTNNNENGQAQSNYEYDVNVQDEEDEAAAGPMPLQMLEGNGITASDIKKIHEAGYYTVESIAYTPKRQLLLIKGISEAKADKLLGEASKLVPMGFTTATEYHIRRSELITITTGSKQLDTLLQGGVETGSITELFGEFRTGKSQICHTLAVTCQLPIDMGGGEGKCLYIDTEGTFRPVRLLAVADRYGLNGEEVLDNVAYARAYNADHQLELLQQAANMMSESRFSLLVVDSCTALYRTDFSGRGELSARQMHLARFMRTLQRLADEFGIAVVITNQVVAQVDGISFNPDPKKPIGGNILAHSSTTRLSLRKGRGEQRICKIYDSPCLPESEAIFAINSDGVGDPKEIIAPV
Take B2: the figures for the binding entry in experiment [2] and in experiment [3] were “binds” and “binds weakly”, respectively.
